Source: doi:10.1371/journal.pone.0140310, primary screening data, rounded.

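Human melanoma cells were exposed to a pair of drugs for 72 h in 1,536-well plates and read by automated microscopy after fixing and staining. Values are the number of DAPI-stained nuclei as a percentage of the DMSO control: 100 is no effect, lower means fewer cells. Every drug was used at one fixed concentration, the lower of two screened (a fifth of the higher). The file gives one value for each pair and line, without errors, so small differences may be noise.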
Only some of the drugs and lines screened are listed, without regard to their results.
A dash means that no value is listed here.

Compounds and concentrations:
temozolomide: Cn1nnc2c(C(N)=O)ncn2c1=O at 2 µM
STA-4783: CN(NC(=O)CC(=O)NN(C)C(=S)c1ccccc1)C(=S)c1ccccc1 at 0.006 µM
nutlin-3: COc1ccc(C2=N[C@@H](c3ccc(Cl)cc3)[C@@H](c3ccc(Cl)cc3)N2C(=O)N2CCNC(=O)C2)c(OC(C)C)c1 at 0.1 µM
decitabine: Nc1ncn([C@H]2C[C@H](O)[C@@H](CO)O2)c(=O)n1 at 0.1 µM
NVP-BEZ235: Cn1c(=O)n(-c2ccc(C(C)(C)C#N)cc2)c2c3cc(-c4cnc5ccccc5c4)ccc3ncc21 at 0.004 µM
PF-562271: CN(c1ncccc1CNc1nc(Nc2ccc3c(c2)CC(=O)N3)ncc1C(F)(F)F)S(C)(=O)=O at 0.08 µM
dovitinib: CN1CCN(c2ccc3nc(-c4c(N)c5c(F)cccc5[nH]c4=O)[nH]c3c2)CC1 at 0.1 µM
bortezomib: CC(C)C[C@H](NC(=O)[C@H](Cc1ccccc1)NC(=O)c1cnccn1)B(O)O at 0.001 µM
Src-I1: COc1cc2ncnc(Nc3ccc(Oc4ccccc4)cc3)c2cc1OC at 2 µM

Cell line	STA-4783 + Src-I1	Src-I1 + nutlin-3	PF-562271 + NVP-BEZ235	bortezomib + STA-4783	dovitinib + temozolomide	temozolomide + NVP-BEZ235	temozolomide + Src-I1	decitabine + Src-I1
LOX IMVI	105	102	123	60.9	74.6	91.6	76.5	113
COLO 829	60.7	73.8	58.8	63.1	62.9	94.0	87.9	107
MEL-HO	121	95.5	90.5	89.9	94.6	78.4	93.4	107
A2058	76.4	88.1	70.6	59.1	77.2	73.0	95.0	94.2
G-361	54.3	96.1	67.0	11.2	86.5	100	89.6	96.5
COLO 792	56.0	77.0	80.4	66.1	89.6	88.8	83.9	86.6
COLO 800	53.7	138	90.0	31.5	90.4	94.0	93.4	118
501mel	32.7	79.0	-	-	-	-	137	88.2
C32	76.8	88.4	86.1	72.4	83.2	82.7	108	92.4
A101D	68.1	94.9	84.7	24.3	87.2	86.5	94.2	111
A375	24.2	-	84.7	29.3	90.6	79.0	123	-
LB2518-MEL	88.4	106	101	27.6	64.6	99.9	112	89.8
IPC-298	78.5	94.0	92.2	74.8	95.9	91.8	88.0	64.5
IST-MEL1	77.3	93.2	96.9	62.0	85.4	86.8	89.1	88.5

The first 2 entries again:

Cell line,STA-4783 + Src-I1,Src-I1 + nutlin-3,PF-562271 + NVP-BEZ235,bortezomib + STA-4783,dovitinib + temozolomide,temozolomide + NVP-BEZ235,temozolomide + Src-I1,decitabine + Src-I1
LOX IMVI,105,102,123,60.9,74.6,91.6,76.5,113
COLO 829,60.7,73.8,58.8,63.1,62.9,94.0,87.9,107